Experimental data: PubChem BioAssay AID1508588 (Peter MacCallum Cancer Centre, 2020)

- Purpose: 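Knock-downs boosting vemurafenib effects on melanoma cell growth or lactate release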 (primary screen)
- Cell system: human WM266.4 melanoma cells (BRAF V600 mutant)
- Reagent: siRNA pool against human genes, 40 nM
- Duration: 96 h from transfection to read-out
- Challenge: vemurafenib 300 nM (about IC25), added 48 h after transfection, for 48 h; comparison arm got DMSO vehicle only
- Measurement: 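Ratios to non-targeting siRNA for cell gain, counted as DAPI nuclei after minus before drug and averaged over two replicates, and for absorbance-read medium lactate per cell; both binned into fold-change classes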
- Scale: cell gain with vemurafenib: higher = more cell gain than with non-targeting siRNA; lactate per cell with vemurafenib: higher = more lactate made per cell
- Hit rule: 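Enhancement is called by pairing each knock-down's vehicle-arm and drug-arm fold-change classes for viability or glycolysis; which class combinations qualify is not given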
- Meaning of the calls: active = enhances vemurafenib effect; inactive = no enhancement seen
This is one part, drawn at random, of about 18,000 reagents tested. Of all reagents, 790 (4.4%) got an active call. 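Calls rest on a combination of fold-change classes in drug and vehicle arms, not all shown here.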

no.	gene	cell gain with vemurafenib	lactate per cell with vemurafenib	Outcome
1	RCAN3	0.72	0.74	inactive
2	ANXA7	0.7	0.41	inactive
3	KCTD14	0.67	0.98	inactive
4	ATP5PF	0.34	0.88	inactive
5	RGL2	0.4	0.84	inactive
6	GCSH	0.75	1.47	inactive
7	BATF3	0.29	1.81	inactive
8	TANK	0.59	1.31	inactive
9	CENPBD1P	0.85	1.75	inactive
10	CACNB3	0.47	0.94	inactive
11	MYL11	0.24	0.69	active
12	MCM3AP	0.92	0.8	inactive
13	PCNX1	0.28	1.02	inactive
14	SINHCAF	0.55	0.88	inactive
15	LY86	0.55	0.5	inactive
16	DND1	0.39	1.48	inactive
17	GREM2	0.82	0.4	inactive
18	SNX17	0.93	0.7	inactive
19	PLRG1	0.65	0.66	inactive
20	CXCL9	0.3	1.08	inactive
21	UQCRQ	0.29	2.33	inactive
22	NOS1	1.4	0.67	inactive
23	SCARA3	0.26	0.74	inactive
24	ZPR1	0.38	1.07	inactive
25	DAD1	0.48	0.9	inactive
26	GPR37L1	0.44	0.72	inactive
27	MRI1	0.38	0.88	inactive
28	CYP3A4	0.46	1.24	inactive
29	DHCR7	0.36	1.29	inactive
30	DDX39A	0.62	1.34	inactive
31	ATG16L1	1.22	0.67	inactive
32	CFAP36	0.39	1.69	inactive
33	RAB18	0.86	1.02	inactive
34	DACT2	-0.02	1.58	inactive
35	TCF23	0.35	1.52	inactive
36	ZNF367	0.69	0.87	inactive
37	NUP160	0.7	0.6	inactive
38	EIF4A2	0.5	0.94	inactive
39	SLC7A6OS	0.16	3.14	inactive
40	CRTC2	0.51	1.03	inactive
41	DDR2	0.72	0.7	inactive
42	ZNF473	0.23	2.26	inactive
43	FAM161A	0.84	0.52	inactive
44	TECTB	0.65	0.89	inactive
45	TFEB	0.78	1.19	inactive
46	ZNF154	0.58	0.56	inactive
47	CA14	0.12	1.22	inactive
48	ST7	0.21	0.29	inactive
49	MEPE	0.53	1.36	inactive
50	RFXAP	0.29	1.42	inactive
51	CBX1	0.3	1.51	inactive
52	SFTA2	0.61	0.68	inactive
53	HRK	0.45	1.55	inactive
54	SDF2	0.71	0.6	inactive
55	TMPRSS11B	1.08	0.4	inactive
56	PLS3	0.49	1.21	inactive
57	NOSIP	0.48	1.22	inactive
58	TAC4	1.02	1.48	inactive
59	ZNF683	0.65	0.82	inactive
60	SATB1	0.95	1.56	inactive
61	KATNA1	0.39	1.1	inactive
62	PREPL	0.6	1.13	inactive
63	LONP2	0.28	1.35	inactive
64	LDHC	0.54	0.5	inactive
65	SCGB2A2	0.58	0.77	inactive
66	ADA	0.92	0.66	inactive
67	CLEC18A	0.81	0.68	inactive
68	GH2	0.57	0.78	inactive
69	E2F1	0.49	1.09	inactive
70	LRP10	1.13	0.78	inactive
71	IKZF4	0.33	0.62	inactive
72	GPT2	0.67	0.75	inactive
73	SUSD4	0.28	0.28	inactive
74	MRPS30	1.43	0.33	inactive
75	TAF6	0.51	1.09	inactive
76	CFAP91	-0.08	0.24	active
77	ASZ1	0.24	0.69	inactive
78	SNAPC1	0.71	0.28	inactive
79	SLC22A13	0.53	0.89	inactive
80	PCK2	0.85	0.71	inactive
81	VPS54	0.55	0.52	inactive
82	GPATCH3	0.45	1.06	inactive
83	TICAM1	1.1	0.92	inactive
84	OR5L1	0.28	0.66	inactive

An excerpt from above, reduced to “lactate per cell with vemurafenib”.
LONP2	1.35
LDHC	0.5
SCGB2A2	0.77
ADA	0.66
CLEC18A	0.68
GH2	0.78
E2F1	1.09
LRP10	0.78
IKZF4	0.62
GPT2	0.75
